Measured values taken from patent US20170240629A1.
These are yes or no findings as the source states them, for the method shown. Some results given as binding are weak or reduced against the parent protein; the word gives no strength.

Biological target: cynomolgus PDGF-BB (cynomolgus)
Assay: summary of the ELISA and SPR data

B1: PDGF-B-mumAb (antibody, V domains shown)
VH: QVQLQQSGAELMKPGASVKISCKATGYTFSSYWIEWVKQRPGHGLEWIGEILPGSGSTNYNEKFKVKATFTADTSSNTAYMQLSSLTSEDSAVYYCAQTTQDFDSWGQGTTLTVSS
VL: DIVLTQSPGSLAVSLGQRATISCRASESVDIYGYSFMHWYQQKPGQPPKLLIYRASNLESGIPARFSGSGSRTDFTLTINPVEADDVATYYCQQSNEDPRTFGGGTKLEIK
  binding: binds
